In PubChem BioAssay AID1347076 (National Center for Advancing Translational Sciences (NCATS), 2019):
In all, about 400,000 compounds went through this assay and about 13,000 (3.2%) were called active. Inconclusive results, whose numbers are uncertain, are shown with a selection of clear calls. Calls follow the shape of the dose curve; as a rule, active = well fitted cell-killing curve with a large enough effect; inconclusive = small, poorly fitted or top-dose-only effect, or effect the other way; inactive = flat fitted curve, though single readings scatter. Potencies beside an inconclusive call are fits to weak or partial responses and may not hold up.

Experiment: qHTS assay for MDR1-selective chemotherapeutics: Primary screen using the drug-selected MDR subline cells KB-V1; also: nearly all actives have a fitted effect of over 60% in size
Conditions: KB-V1 MDR cells viability, CellTiter-Glo, 72 h; series mostly up to 46.1 µM
How it was run: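 Potencies derive from concentration-effect curves fitted to normalized luminescence (CellTiter-Glo) of KB-V1 cells treated for 72 h at 37 degrees C in phenol-red-free DMEM containing 10% FBS.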
Potency is read from the fitted curve at half-maximal effect.

SMILES	Potency
CCOc1ccc(CNC(=O)CSc2nnc(C)c3c(C)n(-c4ccccc4)nc23)cc1	inactive
O=C1OCCN1C(=O)[C@H]1[C@H](c2ccccc2)C(c2cccc(Cl)c2)=NN1c1ccccc1	inactive
COC1=CC(=O)C(OC)=C(OC)C1=O	inconclusive: 20.6 µM [cytotoxic, partial curve, poor fit]
CCOC(=O)Nc1ccc2c(c1)N(C(=O)CCN(C)C)c1ccccc1CC2	inactive
CN(C)c1ccc(/C=C2\SC(=O)N(CC(O)Cn3c4ccccc4c4ccccc43)C2=O)cc1 (stereo unspecified)	inactive
COc1ccc(NC(=O)Cn2nnc(-c3ccccc3NS(=O)(=O)c3ccccc3)n2)cc1	active: 2.91 µM
COCCCn1c(=O)/c(=C\c2ccc(OC(F)F)c(OC)c2)s/c1=C(/C#N)C(N)=O	inconclusive: 16.4 µM [cytotoxic, partial curve]
CS(=O)(=O)CC(=O)Nc1ccc2nc3n(c(=O)c2c1)CCCCC3	inconclusive: 20.6 µM [rising, single point]
COc1ccc(N2CCN(C(=O)COC(=O)CNC(=O)c3cccc(OC(F)F)c3)CC2)cc1	inconclusive: 25.9 µM [rising, partial curve, poor fit]
Cc1cc(C)c(-c2cc(NC(=O)COC(=O)c3ccc(NC(=O)CC#N)cc3)n(-c3ccccc3)n2)cc1C	inconclusive: 20.6 µM [cytotoxic, partial curve, poor fit]
CCCCOc1ccc(/C=C(\C(=O)O)c2ccc(S(=O)(=O)N3CCCC3)s2)cc1	inconclusive: 29.1 µM [rising, single point]
Cc1ccc(OCC(=O)N(c2ccccn2)C2CCCCC2)c(C)c1	active: 18.4 µM
O=S(=O)(c1ccc(Br)cc1)N1CCN(Cc2ccco2)CC1	inconclusive: 13 µM [cytotoxic, partial curve, poor fit]
O=C1Nc2ccccc2NC(c2ccc3c(c2)OCO3)=C1N(Cc1ccc(F)cc1)C(=O)c1ccco1	inactive
Cc1nc2sc3c(NCc4ccco4)ncnc3c2c2c1COC(C)(C)C2	active: 18.4 µM
CCOc1cccc(CNc2ccc(O)cc2)c1OCc1ccc(Cl)cc1Cl	inactive
O=C(CCOc1ccccc1)Nc1ccc(S(=O)(=O)Nc2ncccn2)cc1	inconclusive: 0.517 µM [rising, full curve, poor fit]
CCOC(=O)[C@]12CCC=C1N(CCC1=CCCCC1)C(=O)[C@H](CC(=O)NCc1cccc3ccccc13)C2	inconclusive: 25.9 µM [cytotoxic, single point]
COC(=O)Cc1[nH]n(-c2nc3ccccc3s2)c(=O)c1C(C)=Nc1ccc(OC)cc1	active: 9.2 µM
Cc1cc(C)nc(SCC(=O)Nc2ccc(S(=O)(=O)N3CCCCC3)cc2)n1	inconclusive: 11.6 µM [cytotoxic, partial curve, poor fit]
CC(=O)c1ccc(-c2cccs2)s1	inactive
CCOC(=O)c1ccccc1NC(=O)c1cc2c(=O)oc3ccc(C)cc3c2s1	inactive
CCc1ccccc1Oc1nc(NCc2ccccc2)nc2ccsc12	inconclusive: 29.1 µM [cytotoxic, single point]
CCOC(=O)C1=C(O)c2ccccc2C(=O)/C1=C\c1ccc(CC)cc1	inconclusive: 23.1 µM [cytotoxic, single point]

SMILES	Potency
Cc1ccc(CSc2nnc(-c3cccnc3)o2)cc1	inconclusive: 20.6 µM [cytotoxic, single point]
CCOc1ccc(-c2csc(NC(=O)C3CCCO3)n2)cc1 (stereo unspecified)	inconclusive: 20.6 µM [cytotoxic, single point]
COC(=O)CS(=O)(=O)c1nnc([C@H](Cc2ccccc2)NC(=O)OC(C)(C)C)o1	inconclusive: 29.1 µM [cytotoxic, single point]
CCOc1ncccc1C(=O)Nc1ccc(-c2cn3ccsc3n2)cc1	inconclusive: 1.3 µM [cytotoxic, full curve]
C/C(=N\NC(=O)c1ccn(C)n1)c1ccc(NC(=O)C2CCC2)cc1	inactive
COc1cc(Br)cc(/C=C/c2ccc3cccc(O)c3n2)c1OC	inactive
N#CC1=C(N)N=C(SCc2cccc3ccccc23)C(C(N)=O)C12CCCCC2 (stereo unspecified)	inconclusive: 20.6 µM [cytotoxic, single point]
N#Cc1c(SCC(=O)N2CCCCC2)nsc1SCC(=O)N1CCCCC1	inconclusive: 13 µM [cytotoxic, partial curve]
C=C[C@@H]1c2c(F)cccc2N(S(=O)(=O)c2ccc(C)cc2)[C@H](c2ccc(OC(C)=O)cc2)C1(C#N)C#N	inconclusive: 29.1 µM [cytotoxic, single point]
Cc1ccc(S(=O)(=O)Nc2cccc(-c3cn4cccc(C)c4n3)c2)cc1	inactive
Cc1c(C(N)=O)c(N)c(C(=O)c2ccccc2)n1-c1ccccc1	active: 20.6 µM
CC(C)n1c(CN(C)c2ccccc2)nc2ccccc21	inconclusive: 18.4 µM [cytotoxic, partial curve]
Cc1ccc(NC(=O)CCCOc2ccccc2)cc1S(=O)(=O)N1CCOCC1	inactive
COc1ccc(N2CCN(CC(=O)c3ccc(O)c(C)c3O)CC2)cc1	inactive
CC(=O)Nc1ccc(Nc2cc(C)nc3c(-c4ccc(Cl)cc4)cnn23)cc1	inconclusive: 18.4 µM [cytotoxic, partial curve]
COc1cc2c(cc1OC)C(CC(=O)O)N(C(=O)CC1CCCC1)CC2 (stereo unspecified)	inactive
CN(Cc1cccnc1)C(=O)c1cc(COc2ccc3ncccc3c2)on1	active: 5.17 µM
Nc1n[nH]c(CCCO)n1	inconclusive: 9.2 µM [rising, partial curve]
Cc1cc(C)cc(N(CC(=O)N/N=C/c2ccncc2)S(=O)(=O)c2ccccc2)c1	inconclusive: 0.206 µM [rising, full curve]
CCc1ccc(C2CC(=O)Nc3cc4c(cc32)OCO4)cc1 (stereo unspecified)	inactive
CC(C)n1c(=N)c(C(=O)NCCc2ccccc2)cc2c(=O)n3ccccc3nc21	inconclusive: 29.1 µM [cytotoxic, single point]
CCCCCCCCN1C(=O)[C@H](CC(=O)N2CCCC2)C[C@@]2(C(=O)OC)CC(C)(C)CC=C12	inconclusive: 20.6 µM [cytotoxic, partial curve, poor fit]
CCN(CC)CCNC(=O)c1ccc(NC(=O)CC(NC(=O)c2ccccc2Cl)c2ccccc2)cc1 (stereo unspecified)	inactive
Cc1cccc(C)c1OCC(O)Cn1nnc2ccccc21 (stereo unspecified)	inconclusive: 29.1 µM [cytotoxic, single point]

Retrieved by structure from the list above, 4 records:
SMILES	Potency
CC(=O)Nc1ccc(Nc2cc(C)nc3c(-c4ccc(Cl)cc4)cnn23)cc1	inconclusive: 18.4 µM [cytotoxic, partial curve]
CCc1ccc(C2CC(=O)Nc3cc4c(cc32)OCO4)cc1 (stereo unspecified)	inactive
Cc1cc(C)cc(N(CC(=O)N/N=C/c2ccncc2)S(=O)(=O)c2ccccc2)c1	inconclusive: 0.206 µM [rising, full curve]
CCCCCCCCN1C(=O)[C@H](CC(=O)N2CCCC2)C[C@@]2(C(=O)OC)CC(C)(C)CC=C12	inconclusive: 20.6 µM [cytotoxic, partial curve, poor fit]

(list continues)

SMILES	Potency
CC(C)(C)OC(=O)C[C@@H]1C/C=C\C[C@H](CC(=O)N(CCO)Cc2ccccc2)C(=O)N[C@@H](Cc2c[nH]c3ccccc23)COC1=O	inactive
CCc1cc2cc(C)ccc2nc1SCC(=O)N1CCN(C(=O)c2ccco2)CC1	inconclusive: 16.4 µM [cytotoxic, partial curve]
C[C@@H]1CN(S(=O)(=O)c2c(F)cccc2F)CCN1S(=O)(=O)c1ccc2c(c1)OCCO2	inactive
O=C(NC1CCN(c2ncccn2)CC1)c1ccccc1Cl	inactive
Oc1ccc(C[C@H]2CNC(=S)N2CC2CCCN2C[C@H](Cc2ccccc2)N2C[C@H](Cc3ccc(O)cc3)N(CCc3ccccc3)C2=S)cc1 (stereo partly specified)	inconclusive: 23.1 µM [cytotoxic, single point]
O=C(NC(=S)NCc1ccc(F)cc1)c1ccccc1	active: 20.6 µM
COc1ccccc1C(=O)NC1(C(F)(F)F)C(=O)Nc2c1c(=O)[nH]c(=O)n2-c1ccccc1 (stereo unspecified)	inactive
O=C(CCS(=O)(=O)Cc1ccccc1)N1CCc2ccccc2C1	active: 16.4 µM
O=C(CSc1ccc(-c2cccnc2)nn1)Nc1ccc(F)cc1F	inconclusive: 29.1 µM [cytotoxic, single point]
Cc1ccc2nc3n(c(=O)c2c1)-c1ncccc1C(=O)NC3Cc1ccccc1 (stereo unspecified)	inactive
COC(=O)[C@]12CCCCC=C1N(Cc1cccc3ccccc13)C(=O)[C@H](CC(=O)NCc1ccccc1)C2	inconclusive: 29.1 µM [cytotoxic, single point]
Cc1oc2ncn(C)c(=O)c2c1C(=O)N1CCN(c2ccccc2)CC1	inconclusive: 25.9 µM [rising, single point]
CCC(C)(C(=O)NC1CCCCC1)N(Cc1ccco1)C(=O)c1ccc2c(c1)OCO2 (stereo unspecified)	active: 11.6 µM
COCCNC(=O)C1CCCN(S(=O)(=O)c2c(C)noc2/C=C/c2cccs2)C1 (stereo unspecified)	inactive
CCOC(=O)c1c(C)[nH]c(C(=O)OCc2ccc(F)cc2)c1C	inactive
Oc1ccc(N=Cc2ccc(O)c(O)c2)cc1	inconclusive: 16.4 µM [cytotoxic, single point]
COc1ccc(OC)c(/C=N\NC(=O)c2cc3c(ccc4ccccc43)o2)c1	inactive
Cc1ccc2c(c1)-c1nc(-c3ccc4c(c3)NC(=O)CO4)cc(-c3ccc(Cl)cc3)c1CO2	inactive
Cn1c(=O)c2c([nH]c(=O)n2Cc2ccc(Cl)cc2Cl)n(C)c1=O	inactive
Cc1ccc(S(=O)(=O)N2[C@@H](c3ccc(Cl)cc3)C(C(=O)O)=C[C@H]2C(C)(C)C)cc1	inactive
Cc1ccc(S(=O)(=O)N2[C@@H](CO)CO[C@H]2CC(=O)c2cccs2)cc1	inconclusive: 23.1 µM [cytotoxic, partial curve]
O=C(NC1CCN(Cc2ccccc2)CC1)c1cccc(S(=O)(=O)Nc2cc(C(F)(F)F)ccc2Cl)c1	active: 23.1 µM
CCOC(=O)c1cnn(-c2ccccc2)c1NC(=O)c1ccccc1	inconclusive: 10.3 µM [cytotoxic, partial curve, poor fit]
